Reference: the supplement of paper PMC10398353
“And” between values parts separate entries of the source, which are not always exact repeats. Equal values may be shown once. Where a name gives a salt, the structure may show the parent alone. ± gives the standard deviation of the averaged measurements. This is one part of the list. This is a noisy data set.

These compounds were tested on Salmonella enterica serovar Typhimurium ST313 D23580 (assay: normalized bacterial growth (OD600 20 h minus 0 h, interquartile-mean normalized) (fraction of plate interquartile mean); higher = more bacterial growth (less inhibition)). Conditions: LPM (pH 5.8, low phosphate, low Mg2+), concentration: 10 µM, temperature: 37 °C.

SMILES	normalized bacterial growth
Cc1nc2sccn2c(=O)c1CCN1CCC(=C(c2ccc(F)cc2)c2ccc(F)cc2)CC1 [Ritanserin]	0.695
O=C1c2c(O)ccc(O)c2C(=O)c2c(NCCNCCO)ccc(NCCNCCO)c21 [Mitoxantrone]	1.1
COc1cc(O)cc(OC)c1OC	0.942
O=C(NC(Cc1cc(=O)[nH]c2ccccc12)C(=O)O)c1ccc(Cl)cc1 (stereo not given)	1.17
CCN1C(=O)C=CC1=O [N-Ethylmaleimide]	0.969
CC(C)(C)NC[C@H](O)COc1cccc2c1CCCC2=O	1.09
CC(C)(C)NC[C@H](O)COc1cccc2c1CCCC2=O [(-) -Levobunolol hydrochloride]	0.967
C[N+](C)(C)CCOC(N)=O [Carbachol]	0.847
COC(=O)C[C@H]1C2(C)CC34OC5(C)O[C@@]6([C@H](OC)C(OC(=O)C(C)C)[C@]7(C)C(/C(=C(/OC)C(C)C)C(=O)O[C@H]7c7ccoc7)[C@@]6(O5)[C@H](OC)[C@@]3(OC)C2OC(C)=O)[C@]14C (stereo not given in full)	0.709
Nc1ncn(C2OC(CO)C(O)C2O)c(=O)n1 (stereo not given) [Azacytidine-5]	0.023
COC(=O)[C@H]1[C@H]2C[C@H]3c4[nH]c5cc(OC)ccc5c4CCN3C[C@H]2C[C@@H](OC(=O)c2cc(OC)c(OC)c(OC)c2)[C@@H]1OC	0.585
CN(C)CCc1c[nH]c2ccc(CS(=O)(=O)N3CCCC3)cc12	0.91
COc1cc(/C=C/CO)ccc1O	0.851
O=C(O)CCC(=O)c1ccc(-c2ccccc2)cc1	1.14
C[C@H]1[C@H](C)CC[C@]2(C(=O)O)CC[C@]3(C)C(=CC[C@@H]4[C@@]5(C)C[C@@H](O)[C@H](O)[C@@](C)(CO)[C@@H]5[C@H](O)C[C@]43C)[C@H]12	0.99 ± 0.27
CCN1CCCC1CNC(=O)c1cc(S(N)(=O)=O)ccc1OC (single isomer, unassigned; (-)) [(-)-Sulpiride]	1.12
CN1CCN2c3ccccc3Cc3ccccc3C2C1 (stereo not given) [Mianserin hydrochloride]	1.35
CCC(C)C(NC)C(=O)O (stereo not given)	1.03
CCCCS(=N)(=O)CCC(N)C(=O)O [L-Buthionine-sulfoximine]	1.22
COc1cccc(OC)c1OCCNCC1CSc2ccccc2O1 (stereo not given) [Benoxathian hydrochloride]	0.964
CC(=O)O[C@@H]1CC2C(C)(C)[C@H](O)CC[C@]2(C)C2CC[C@@]3(C)[C@H](c4ccoc4)OC(=O)C4OC43[C@@]21C (stereo partly drawn) [alpha-DIHYDROGEDUNOL]	0.815
CCC(C)(C)C(=O)O[C@H]1C[C@@H](C)C=C2C=C[C@H](C)[C@H](CC[C@@H]3C[C@@H](O)CC(=O)O3)[C@H]21	0.888

SMILES	normalized bacterial growth
CC1(C)CC2C1CC[C@]1(CBr)CCC3C(CC(=O)O)C(=O)O[C@@]32C1 (stereo not given in full) [BROMO-3-HYDROXY-4-(SUCCIN-2-YL)-CARYOLANE gamma-LACTONE]	1.08
COc1cc(CNC(=O)CCCCCCC(C)C)ccc1O [Dihydrocapsaicin]	0.42
CCCc1nn(C)c2c(=O)[nH]c(-c3cc(S(=O)(=O)N4CCN(C)CC4)ccc3OCC)nc12	0.9
COc1cc(O)c(C(=O)/C=C/c2ccccc2)c(OC)c1	0.454
O=C1CC[C@]23/C=C/C(=O)NCCCCNCCCNC(=O)/C=C/c4ccc(c2c4)O[C@@H]3C1	1.06
C=C[C@@]1(C)CC(=O)[C@@]2(O)[C@](C)(O1)[C@@H](O)[C@@H](O)C1C(C)(C)CC[C@H](O)[C@@]12C (stereo not given in full)	1.01
OC[C@H]1NC[C@@H](O)[C@@H]1O ["1,4-Dideoxy-1,4-imino-D-arabinitol"]	1.12
Cc1nc2c([nH]1)c(=O)n(C)c(=O)n2Cc1ccco1 [Furafylline]	1.02
COc1ccc(C(C)=O)c(OC)c1	1.16
CC(NCCc1ccc(O)cc1)C(O)c1ccc(O)cc1 (stereo not given)	1.16
CC(NCCc1ccc(O)cc1)C(O)c1ccc(O)cc1 (stereo not given) [Ritodrine hydrochloride]	1.12 ± 0.061
NC[C@@H]1O[C@H](O[C@H]2[C@@H](O)[C@H](O[C@@H]3[C@@H](O)[C@H](N)C[C@H](N)[C@H]3O[C@H]3O[C@H](CN)[C@@H](O)[C@H](O)[C@H]3N)O[C@@H]2CO)[C@H](N)[C@@H](O)[C@@H]1O	1.11
CCC1(C)CC(=O)NC1=O (stereo not given) [Ethosuximide]	1.22
NC1CONC1=O (racemic) [DL-Cycloserine]	1.05
OCCN1CCN(CC/C=C2/c3ccccc3Sc3ccc(Cl)cc32)CC1 [Zuclopenthixol hydrochloride]	1.16
Cc1c(S(=O)(=O)O)oc2c1C(=O)C(=O)c1c-2ccc2c1CCCC2(C)C	0.684
NCCCS(=O)(=O)O [3-Amino-1-propanesulfonic acid sodium]	0.687
NCCCS(=O)(=O)O	1.06
Nc1nc(/C(=C/CC(=O)O)C(=O)N[C@@H]2C(=O)N3C(C(=O)O)=CCS[C@H]23)cs1	0.996
C=CCN1CCc2cc(O)c(O)cc2C(c2ccccc2)C1 (stereo not given)	0.943
O=C(/C=C/c1ccccc1)c1ccc(O)cc1	1.12
CC1=CC(=O)C2=C(C)CC[C@@H]3[C@H](OC(=O)[C@H]3C)[C@@H]12	0.81

SMILES	normalized bacterial growth
CN(C)CCOC(=O)C(c1ccccc1)C1(O)CCCC1 (stereo not given)	1.11
Nc1ccc(/N=N/c2ccccc2)c(N)n1	0.702
CCC(=O)O[C@]1(C(=O)SCF)[C@H](C)C[C@H]2[C@@H]3C[C@H](F)C4=CC(=O)C=C[C@]4(C)[C@@]3(F)[C@@H](O)C[C@@]21C [Fluticasone propionate]	0.925
C[N+]1(C)CCCC1C(=O)O (stereo not given) [Stachydrine hydrochloride]	1.15
O=C(O)c1ccccc1Nc1cccc(C(F)(F)F)c1	1.39
CC[N+](C)(CC)CCC[n+]1c(-c2ccccc2)c2cc(N)ccc2c2ccc(N)cc21 [Propidium iodide]	1.35
OCCc1ccccc1	1.17
CC(=O)Nc1ccc(S(=O)(=O)c2ccc(NC(C)=O)cc2)cc1	0.976
O=C1O[C@H]([C@@H](O)CO)C(O)=C1O [Ascorbic acid]	1.24
O=C1O[C@H]([C@@H](O)CO)C(O)=C1O	0.789
Clc1ccc(C(c2ccccc2Cl)C(Cl)Cl)cc1 (stereo not given) ["1-(2-Chlorophenyl)-1-(4-chlorophenyl)-2,2-dichloroethane"]	0.7
C[C@@H]1CC[C@@]2(OC1)O[C@H]1C[C@H]3[C@@H]4CC=C5C[C@@H](O)CC[C@]5(C)[C@H]4CC[C@]3(C)[C@H]1[C@@H]2C	1.26
CC(=O)Oc1cc(C)c2c(c1C=O)Oc1c(c(C)c(OC(C)=O)c3c1C(OC(C)=O)OC3=O)OC2=O (stereo not given)	0.926
Nc1ccc(C(=O)O)c(O)c1	0.972
CCCCCCCCCCCCCCCCCCNC(=O)OCC(COP(=O)([O-])OCC[n+]1ccsc1)OC (stereo not given)	1.17
CC(=O)OC/C=C(\C)CC/C=C(\C)CC/C=C(\C)CC/C=C(\C)CC/C=C(\C)CC/C=C(\C)CC/C=C(\C)CC/C=C(\C)CCC=C(C)C	1.26
CN(C)C(=N)NC(=N)N	1.13
CC1CC2C3CCC4=CC(=O)C=CC4(C)C3(F)C(O)CC2(C)C1C(=O)CO (stereo not given)	0.845
CC=CC(=O)N(CC)c1ccccc1C	1.02
CNCCc1ccccn1 [Betahistine mesylate]	0.965
CNCCc1ccccn1	1.09
CCCCCCCCCCCCCCCC(=O)OC[C@H](O)[C@H]1OC(=O)C(O)=C1O	0.709

Retrieved one by one from the list above, 5 records:
SMILES	normalized bacterial growth
Nc1ccc(C(=O)O)c(O)c1	0.972
CC(=O)OC/C=C(\C)CC/C=C(\C)CC/C=C(\C)CC/C=C(\C)CC/C=C(\C)CC/C=C(\C)CC/C=C(\C)CC/C=C(\C)CCC=C(C)C	1.26
CC(NCCc1ccc(O)cc1)C(O)c1ccc(O)cc1 (stereo not given)	1.16
COc1cc(/C=C/CO)ccc1O	0.851
COc1cc(O)c(C(=O)/C=C/c2ccccc2)c(OC)c1	0.454

(next part)

SMILES	normalized bacterial growth
Nc1nc2c(ncn2COC(CO)CO)c(=O)[nH]1 [Ganciclovir]	1.12
N=C(N)NCCCCNC(=N)N [Arcaine sulfate]	0.966
CO[C@H]1/C=C/O[C@@]2(C)Oc3c(C)c(O)c4c(O)c(c5c(nc6cc(C)ccn65)c4c3C2=O)NC(=O)/C(C)=C\C=C\[C@H](C)[C@H](O)[C@@H](C)[C@@H](O)[C@@H](C)[C@H](OC(C)=O)[C@@H]1C	1.09
Clc1cccc(Cl)c1NC1=NCCN1 [Clonidine hydrochloride]	1.12 ± 0.028
CN(C)S(=O)(=O)c1ccc2c(c1)/C(=C/c1cc3c([nH]1)CCCC3)C(=O)N2	0.586
CC1(C)CC2C1CC[C@]1(C)CCC3C(C(=O)O)CC(=O)O[C@@]32C1 (stereo not given in full) [3-HYDROXY-4-(SUCCIN-2-YL)-CARYOLANE delta-LACTONE]	1.03
CCN(CC)C(C)CN1c2ccccc2Sc2ccccc21 (stereo not given)	0.588
CCCNC(=O)NS(=O)(=O)c1ccc(Cl)cc1 [Chlorpropamide]	0.962
CC(=O)O[C@]1(C(C)=O)CC[C@H]2[C@@H]3C=C(Cl)C4=CC(=O)CC[C@]4(C)[C@H]3CC[C@@]21C	1.4
CSC(=N)N [S-Methylisothiourea hemisulfate]	1.2
CN(C)CCOC(c1ccccc1)c1ccccc1.Cn1c(=O)c2[nH]c(Cl)nc2n(C)c1=O	0.995
C[C@@H]1CC[C@@]23CCC4(C)[C@@](C=CC5[C@@]6(C)CC[C@H](O)C(C)(C)C6CC[C@]54C)(OC2=O)C3[C@H]1C (stereo not given in full)	0.954
Cl.N[C@@H](CCC(=O)O)C(=O)O [L-Glutamic acid hydrochloride]	1.19
COc1ccc([C@@H]2CC(=O)c3c(O)cc(OC4O[C@H](CO[C@H]5O[C@@H](C)[C@@H](O)[C@@H](O)[C@H]5O)[C@H](O)[C@H](O)[C@H]4O)cc3O2)cc1O (stereo not given in full)	1.34
O=C1NCC2(CCN(CCc3ccccc3)CC2)O1 [Fenspiride hydrochloride]	0.907
Clc1ccc2c(c1)CCc1cccnc1C2=C1CCNCC1	0.693 and 0.91
CCCCC/C=C/C=C/C(=O)NCC(C)C	0.769
COc1cc(C)c(C(=O)Oc2cc(C)c(C(=O)O)c(O)c2C)c(OC)c1C	0.85
O=C1NC(=O)c2cc(Nc3ccccc3)c(Nc3ccccc3)cc21	0.87
